# Reference: PubChem BioAssay AID2685 (National Center for Advancing Translational Sciences (NCATS), 2010)
# This is one part of the list. Further columns of the screen follow, without active or inactive calls. Most of these compounds were active or inconclusive in the main read-out, so they are no random draw. The note in brackets gives the kind of curve behind each potency; many fits are weak.
# Assay: qHTS Assay for Lipid Storage Modulators in Drosophila S3 Cells;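 as to cell number change: cells counted by Cell Tracker Red CMTPX staining in the red channel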
# Conditions: BODIPY lipid droplet fluorescence, 18-24 h; for cell number change: measured here: cell count max response, cells fed with added oleic acid
# Summary of the method: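 Drosophila S3 cells loaded with oleic acid (400 uM, as added) and compounds at several concentrations; lipid droplets imaged by 488-nm laser-scanning cytometry, 500–530 nm intensity and object ratio to cell channel. Percent activity normalized to 20 uM Triacsin C.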
# [1] = measured here: cell number channel AC50, cells fed with added oleic acid
# [2] = measured here: lipid fluorescence (Fed channel) AC50, cells fed with added oleic acid
SMILES,cell number change [%],AC50 [1],AC50 [2]
COc1ccc(C2C(C(=O)Nc3ccc(OC)c(OC)c3)c3ccccc3C(=O)N2C)cc1 (stereo not given),96.4,"4.61 µM [rising, partial curve]","10.3 µM [rising, partial curve]"
CCOC(=O)c1cccnc1SCc1cc(=O)n2ccccc2n1,4.65,,"3.66 µM [rising, full curve, poor fit]"
COc1ccccc1CNC(=O)c1oc2ccc(S(=O)(=O)N3CCOCC3)cc2c1C,,,"29.1 µM [falling, partial curve]"
CC(=O)N1CCc2c(sc(NC(=O)Cc3ccccc3)c2C#N)C1,-10.9,,"29.1 µM [falling, partial curve, poor fit]"
Cc1ccc(CNC(=O)CSc2nc(C)cs2)cc1,27.5,,"29.1 µM [rising, single point]"
Cc1cnc(C(=O)OCc2ccc(COC(=O)c3cnc(C)cn3)cc2)cn1,0.261,,
CCOC(=O)C1CCCN(C(=O)C2CCCN(S(=O)(=O)c3ccc4c(c3)oc(=O)n4C)C2)C1 (stereo not given),-12.5,,
O=C(Nc1cccnc1)c1cc2cc(Br)ccc2oc1=O,39.3,"4.61 µM [rising, full curve]",
Cc1c(NC2=CC(=O)CC(C)(C)C2)ccc([N+](=O)[O-])c1C,17,,
C=CCCC(=O)NC1CC(C)(C)Cc2c1cnn2-c1ccc(OC)cc1 (stereo not given),0.525,,"6.51 µM [falling, single point]"
CNC(=O)CN(Cc1ccccc1)S(=O)(=O)c1ccc(Cl)cc1,-5.77,,"0.58 µM [rising, single point]"
O=C(c1ccc(-n2cccc2)cc1)N1CCOCC1,-15.5,,"0.326 µM [falling, full curve, poor fit]"
CC1Cc2ccccc2N1C(=O)CSc1ncccc1C(=O)O (stereo not given),-25.2,"0.146 µM [falling, full curve]","4.11 µM [falling, full curve]"
CCn1c(NC(=O)c2ccccc2)c(-c2cccs2)c(=O)c2ccccc21,49.1,"29.1 µM [rising, single point]","29.1 µM [rising, single point]"
CCCCC(=O)Nc1cccc(NC(=O)c2ccccc2Br)c1,59.2,"23.1 µM [rising, single point]","6.51 µM [rising, single point]"
COc1ccc(NC(=O)CC(C)C)c(OC)c1,,"2.91 µM [falling, single point]","0.0058 µM [falling, full curve, poor fit]"
CCN(CC)c1ccc2c(C)c(CN3CCOCC3)c(=O)oc2c1,15.3,,"23.1 µM [rising, single point]"
COc1ccc(/C=C/C(=O)N[C@H](C(=O)O)C(C)C)cc1,-21.7,"0.58 µM [rising, full curve]",
CCN1CCCC1CNC(=O)c1cc2c(-c3ccc(Cl)cc3)nn(C)c2s1 (stereo not given),,"6.51 µM [falling, single point]","4.11 µM [falling, single point]"
CC(C)(C)OC(=O)N1CCC[C@@H]1C(=O)N1CCC(C(=O)O)CC1,3.08,,"5.8 µM [falling, single point]"

# As a working copy, 3 of the compounds above.
SMILES,cell number change [%],AC50 [1],AC50 [2]
CNC(=O)CN(Cc1ccccc1)S(=O)(=O)c1ccc(Cl)cc1,-5.77,,"0.58 µM [rising, single point]"
O=C(c1ccc(-n2cccc2)cc1)N1CCOCC1,-15.5,,"0.326 µM [falling, full curve, poor fit]"
CC1Cc2ccccc2N1C(=O)CSc1ncccc1C(=O)O (stereo not given),-25.2,"0.146 µM [falling, full curve]","4.11 µM [falling, full curve]"

# Next part.

SMILES,cell number change [%],AC50 [1],AC50 [2]
O=C1C2C3CCC(C3)C2C(=O)N1CNc1ccccc1 (stereo not given),-22,,"0.411 µM [falling, full curve, poor fit]"
CC1CCN(CCCNC(=O)CN2C(=O)CSc3ccc(S(=O)(=O)N4CCCCC4)cc32)CC1,6.26,,
O=S(=O)(Cc1ccccc1)N1CCC(N2CCN(c3ccccc3)CC2)CC1,-17.3,,"0.259 µM [rising, full curve, poor fit]"
O=C(CNC(=O)c1ccccc1F)NCCc1ccc(Cl)cc1,-2.56,,
CCOc1ccc(CCNC(=O)COC(=O)/C=C/c2ccc(C)o2)cc1OCC,-48.5,"2.06 µM [falling, full curve]",
COc1cc(OC)nc(NC(=S)NC(=O)c2ccccc2)n1,4.19,,"3.26 µM [falling, single point]"
COc1ccccc1NS(=O)(=O)c1ccc(C)c(NC(=O)C2CCCO2)c1 (stereo not given),-12.1,,"23.1 µM [falling, partial curve, poor fit]"
CN1CCN(C(=S)c2cn(Cc3ccccc3)c3ccccc23)CC1,19.7,,
CCc1cccc(C)c1NC(=O)C1=C(C(=O)O)CCCC1,4.72,,"29.1 µM [rising, single point]"
O=C(NCc1ccccc1C(F)(F)F)C1CC(c2ccccc2C(F)(F)F)=NO1 (stereo not given),1.31,,"1.64 µM [rising, full curve, poor fit]"
CCC(CC)c1nnc(NC(=O)C2CC(=O)N(C3CCCC3)C2)s1 (stereo not given),12.2,,"29.1 µM [rising, single point]"
CCCCS(=O)(=O)N1CCCC(C(=O)Nc2ccc(Cl)cn2)C1 (stereo not given),6.99,,"0.0366 µM [rising, full curve, poor fit]"
Cc1ccc2nc(SCn3nnc4ccccc4c3=O)[nH]c2c1,4.35,,"0.082 µM [rising, full curve, poor fit]"
C[n+]1ccccc1/C=C/c1ccccc1Cl,21.1,,
O=S(=O)(c1cccs1)N1CCN(c2ccccc2)CC1,26.1,"0.103 µM [rising, full curve, poor fit]","25.9 µM [falling, single point]"
Cc1cc(C(C)(C)C)cc(C)c1S(=O)(=O)N1CCN(C(=O)c2cc([N+](=O)[O-])c[nH]c2=O)CC1,-8.57,,"6.51 µM [rising, partial curve]"
COc1ccc(C(=O)CNc2ccccc2CO)cc1,8.04,,"0.103 µM [rising, full curve, poor fit]"
O=C(C(Cl)c1ccccc1)N1CCCC1 (stereo not given),-10,,"1.16 µM [rising, single point]"
CN(C)/C=C1/C(=O)N(c2ccc([N+](=O)[O-])cc2)N=C1c1ccccc1,-9.73,,"29.1 µM [rising, partial curve, poor fit]"
